Results taken from patent US20230365636A1, “BIOORTHOGONAL REPORTER GENE SYSTEM” (priority 2020, published 2023).

B1: DTPA-R: membrane-anchored reporter protein with DTPA-binding Anticalin, V5-tag and CD4 transmembrane domain (protein)
chain: QDSTSDLIPAPPLSKVPLQQNFQDNQFHGKWYQVGRAGNAAPPEDPELLLLTAQTYELKEDKSYDVTAVRFRKKMCEYLTMTFVPGSQPGEFTLGNIKNYPGLTSYFVRVVSTNYNQHAMVFFKKVQQNREYFSISLLGRTKELTSELKENFIRFSKSLGLPENHIVFPVPIDQCIDASGKPIPNPLLGLDSTGAPASPVQPMALIVLGGVAGLLLFIGLGIFFCVRCRHRRR
B2: CL31d: Prior art Anticalin on human Lcn2 scaffold binding Bn-CHX-A″-DTPA•Me; in Example 7 the label denotes construct CL31d-V5-CD4TMD (protein)
chain: MPLGLLWLGLALLGALHAQAQDSTSDLIPAPPLSKVPLQQNFQDNQFHGKWYQVGRAGNAAPPEDPELLLLTAQTYELKEDKSYDVTAVRFRKKMCEYLTMTFVPGSQPGEFTLGNIKNYPGLTSYFVRVVSTNYNQHAMVFFKKVQQNREYFSISLLGRTKELTSELKENFIRFSKSLGLPENHIVFPVPIDQCIDASGKPIPNPLLGLDSTGAPASPVQPMALIVLGGVAGLLLFIGLGIFFCVRCRHRRRASTG
modifications: DTPA-V5-TMD

Columns and labels:
Jurkat = assay: Number of reporter proteins on the cell surface by flow cytometry (anti-V5 Alexa Fluor 488, MESF kit), lentivirally transduced cells; assay type: cell-based, human
Jurkat T-cells = assay: Surface expression of reporter constructs by V5-tag flow cytometry, retrovirally transduced cells (Example 7); assay type: cell-based, human

Molecule | surface expression upon T-cell activation (Jurkat; Jurkat, PMA/ionomycin activation, FIG. 9B) | increase of surface expression upon T-cell activation (Jurkat; PMA/ionomycin) | fold higher cell surface expression level vs hu_scFv (C825) (Jurkat T-cells; receptors per cell, unsorted) | fold higher cell surface expression level vs mu_scFv(C825) (Jurkat T-cells; receptors per cell, unsorted) | fold higher expression vs huC825 after FACS (Jurkat T-cells; 10% highest expressing clones) | fold higher expression vs muC825 after FACS (Jurkat T-cells; 10% highest expressing clones) | fold difference in the MFI vs humanized scFv (C825) (Jurkat T-cells; unsorted) | fold difference in the MFI vs murine scFv (C825) (Jurkat T-cells; unsorted)
B1 | 960.000 copies | ~10% | 9.1 fold | 8.2 fold |  |  |  | 
B2 |  |  |  |  | 3.7 fold | 3.0 fold | 6.1 fold | 5.8 fold
